Results are given in words; binding and its absence hold for the method and conditions named. Binding seen in cells or lysates may run through a third protein. Some binding calls cover weakened binding; strength is not graded here. Sequences can lack the tags named with a protein.
Molecular target: T1, HA-tagged wildtype BNIP5 (Bcl-2 interacting protein 5) (not stated (human or mouse cDNA cloned)) (UniProt P0C671)
T1 sequence: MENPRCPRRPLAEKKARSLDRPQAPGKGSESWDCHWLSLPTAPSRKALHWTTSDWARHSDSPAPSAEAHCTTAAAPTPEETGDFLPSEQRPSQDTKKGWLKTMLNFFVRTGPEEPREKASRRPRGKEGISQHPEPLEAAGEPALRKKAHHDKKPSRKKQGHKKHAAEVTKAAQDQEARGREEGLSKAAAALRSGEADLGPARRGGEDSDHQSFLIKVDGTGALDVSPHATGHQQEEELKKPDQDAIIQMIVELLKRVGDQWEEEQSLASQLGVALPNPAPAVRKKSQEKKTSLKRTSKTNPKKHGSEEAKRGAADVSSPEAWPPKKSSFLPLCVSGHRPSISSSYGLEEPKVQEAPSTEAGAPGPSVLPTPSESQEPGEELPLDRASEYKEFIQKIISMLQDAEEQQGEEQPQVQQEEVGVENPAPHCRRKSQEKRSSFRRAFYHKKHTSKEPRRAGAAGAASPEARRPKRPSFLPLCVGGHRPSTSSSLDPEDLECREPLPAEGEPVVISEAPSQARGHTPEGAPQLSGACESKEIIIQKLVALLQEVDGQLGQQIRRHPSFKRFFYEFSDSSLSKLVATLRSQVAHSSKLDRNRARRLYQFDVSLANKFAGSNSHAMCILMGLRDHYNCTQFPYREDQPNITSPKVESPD
Test: co-IP

Protein sequences, listed by entry. Tags and fused reporters are not part of them.
UniProt Q16611, whole entry: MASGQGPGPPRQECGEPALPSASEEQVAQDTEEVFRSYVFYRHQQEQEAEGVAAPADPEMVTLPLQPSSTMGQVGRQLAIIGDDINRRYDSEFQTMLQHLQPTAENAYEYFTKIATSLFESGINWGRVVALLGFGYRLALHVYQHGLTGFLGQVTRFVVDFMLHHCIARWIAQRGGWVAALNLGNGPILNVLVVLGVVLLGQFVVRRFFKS
UniProt Q07812, whole entry: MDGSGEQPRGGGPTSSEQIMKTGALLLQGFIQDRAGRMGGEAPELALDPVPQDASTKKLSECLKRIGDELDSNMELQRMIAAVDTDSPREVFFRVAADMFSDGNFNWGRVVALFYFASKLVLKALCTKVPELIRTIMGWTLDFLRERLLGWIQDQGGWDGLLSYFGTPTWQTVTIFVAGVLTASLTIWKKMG

“Bak (Bcl-2 antagonist killer), endogenous in HEK293T (from UniProt Q16611 1-211)” was tested, and the binding was “binds”.

In the case of “Bax (Bcl-2 associated x) in HEK293T (from UniProt Q07812 1-192)”, the binding is reported as “no binding”.
